Literature values in patent US20130053347A1, “PRO-DRUGS OF AMARYLLIDACEAE ISOCARBOSTYRIL PRODUCTS AND THEIR USE AGAINST BRAIN TUMORS” (Universite Libre de Bruxelles, priority 2010, published 2013).
At least one structure is not confirmed: it was looked up by name or label, or the drawing left a doubt.

Key:
melanoma = settings: cited from earlier work
human glioma patients = settings: in vivo; cited from earlier work

SMILES | response rate (melanoma) [%] | survival of human glioma patients (human glioma patients)
CN(C)/N=N/c1[nH]cnc1C(N)=O [dacarbazine] | 16 | 
Cn1nnc2c(C(N)=O)ncn2c1=O [temozolomide] |  | significant increase in survival
